Experimental data from the supplement of paper PMC11006884.
Most of the targets with a hit are listed elsewhere, so they are rarer here than in the full data. Single values of this set are uncertain. The entries are a selection whose mix differs from that of the whole data set.

Sequences of proteins named here, by UniProt entry; tags and fusion partners are left off. A change or cut given only in a name is not applied to a line headed by its entry.
UniProt Q6KC79: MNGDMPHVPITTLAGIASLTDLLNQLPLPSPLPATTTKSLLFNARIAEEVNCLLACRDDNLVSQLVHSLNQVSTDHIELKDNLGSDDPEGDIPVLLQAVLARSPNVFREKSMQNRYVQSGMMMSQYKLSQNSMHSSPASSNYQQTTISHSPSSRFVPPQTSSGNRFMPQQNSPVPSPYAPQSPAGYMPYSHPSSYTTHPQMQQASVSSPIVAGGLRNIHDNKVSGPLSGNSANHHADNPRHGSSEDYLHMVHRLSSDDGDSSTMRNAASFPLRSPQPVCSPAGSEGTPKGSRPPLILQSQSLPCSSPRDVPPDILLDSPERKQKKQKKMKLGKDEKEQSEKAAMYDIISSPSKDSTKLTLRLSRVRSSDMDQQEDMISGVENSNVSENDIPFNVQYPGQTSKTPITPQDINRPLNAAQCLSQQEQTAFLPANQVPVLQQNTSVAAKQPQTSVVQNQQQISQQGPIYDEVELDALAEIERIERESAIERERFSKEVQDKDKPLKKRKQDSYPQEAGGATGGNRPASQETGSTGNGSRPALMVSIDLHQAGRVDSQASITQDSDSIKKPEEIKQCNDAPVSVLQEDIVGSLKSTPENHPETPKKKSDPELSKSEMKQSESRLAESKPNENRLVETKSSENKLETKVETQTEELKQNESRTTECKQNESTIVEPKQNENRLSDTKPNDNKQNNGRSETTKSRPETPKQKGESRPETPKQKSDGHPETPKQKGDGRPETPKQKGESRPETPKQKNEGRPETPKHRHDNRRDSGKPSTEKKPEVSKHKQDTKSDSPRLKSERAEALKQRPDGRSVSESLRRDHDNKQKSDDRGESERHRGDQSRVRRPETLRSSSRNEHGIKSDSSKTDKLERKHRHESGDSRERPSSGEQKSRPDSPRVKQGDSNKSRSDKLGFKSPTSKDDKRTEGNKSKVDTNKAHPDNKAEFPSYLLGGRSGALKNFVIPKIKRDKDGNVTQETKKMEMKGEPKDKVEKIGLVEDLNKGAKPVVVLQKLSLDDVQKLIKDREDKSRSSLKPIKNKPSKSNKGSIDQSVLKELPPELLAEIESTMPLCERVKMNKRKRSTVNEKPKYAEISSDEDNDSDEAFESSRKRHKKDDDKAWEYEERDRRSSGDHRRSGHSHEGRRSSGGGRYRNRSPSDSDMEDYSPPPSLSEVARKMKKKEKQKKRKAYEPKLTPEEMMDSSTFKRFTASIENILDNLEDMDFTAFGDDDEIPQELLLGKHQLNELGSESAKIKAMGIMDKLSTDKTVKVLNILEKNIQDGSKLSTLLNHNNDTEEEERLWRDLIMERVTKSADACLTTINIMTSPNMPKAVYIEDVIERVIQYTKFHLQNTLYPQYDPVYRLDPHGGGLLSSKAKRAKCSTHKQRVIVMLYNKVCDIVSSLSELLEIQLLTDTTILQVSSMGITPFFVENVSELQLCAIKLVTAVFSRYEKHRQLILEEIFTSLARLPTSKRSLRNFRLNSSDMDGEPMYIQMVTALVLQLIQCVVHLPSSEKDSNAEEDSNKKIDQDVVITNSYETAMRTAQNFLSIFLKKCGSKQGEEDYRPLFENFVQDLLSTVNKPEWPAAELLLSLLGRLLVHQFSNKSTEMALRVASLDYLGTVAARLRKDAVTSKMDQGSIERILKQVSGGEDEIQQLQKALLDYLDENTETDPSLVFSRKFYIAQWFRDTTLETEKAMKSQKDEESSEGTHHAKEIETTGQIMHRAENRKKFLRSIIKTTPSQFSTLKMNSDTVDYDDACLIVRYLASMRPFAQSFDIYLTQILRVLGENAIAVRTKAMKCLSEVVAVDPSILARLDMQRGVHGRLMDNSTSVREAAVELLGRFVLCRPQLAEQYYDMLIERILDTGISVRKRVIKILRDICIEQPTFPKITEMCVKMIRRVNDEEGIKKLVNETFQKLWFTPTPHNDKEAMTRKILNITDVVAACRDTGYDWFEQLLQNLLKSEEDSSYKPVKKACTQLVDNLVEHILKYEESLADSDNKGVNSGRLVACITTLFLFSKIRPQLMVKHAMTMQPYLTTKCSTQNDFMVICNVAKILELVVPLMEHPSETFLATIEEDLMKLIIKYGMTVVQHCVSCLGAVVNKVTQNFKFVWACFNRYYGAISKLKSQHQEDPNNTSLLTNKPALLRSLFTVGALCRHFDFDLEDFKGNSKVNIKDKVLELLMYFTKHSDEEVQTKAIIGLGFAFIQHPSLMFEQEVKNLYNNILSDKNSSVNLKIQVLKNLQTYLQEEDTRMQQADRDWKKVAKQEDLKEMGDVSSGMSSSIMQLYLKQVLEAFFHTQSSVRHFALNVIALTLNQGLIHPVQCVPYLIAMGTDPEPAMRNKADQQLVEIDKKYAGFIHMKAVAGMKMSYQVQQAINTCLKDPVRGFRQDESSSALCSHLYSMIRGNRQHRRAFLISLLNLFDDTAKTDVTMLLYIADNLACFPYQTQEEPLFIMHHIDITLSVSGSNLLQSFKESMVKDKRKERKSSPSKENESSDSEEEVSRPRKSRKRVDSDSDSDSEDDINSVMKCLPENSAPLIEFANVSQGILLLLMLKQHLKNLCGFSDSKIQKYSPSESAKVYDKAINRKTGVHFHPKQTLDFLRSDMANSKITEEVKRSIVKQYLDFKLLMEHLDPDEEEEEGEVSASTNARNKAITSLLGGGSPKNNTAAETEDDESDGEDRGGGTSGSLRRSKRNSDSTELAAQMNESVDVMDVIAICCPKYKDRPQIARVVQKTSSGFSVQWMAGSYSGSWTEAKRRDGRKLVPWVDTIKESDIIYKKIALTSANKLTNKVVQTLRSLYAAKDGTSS
UniProt Q5SSJ5: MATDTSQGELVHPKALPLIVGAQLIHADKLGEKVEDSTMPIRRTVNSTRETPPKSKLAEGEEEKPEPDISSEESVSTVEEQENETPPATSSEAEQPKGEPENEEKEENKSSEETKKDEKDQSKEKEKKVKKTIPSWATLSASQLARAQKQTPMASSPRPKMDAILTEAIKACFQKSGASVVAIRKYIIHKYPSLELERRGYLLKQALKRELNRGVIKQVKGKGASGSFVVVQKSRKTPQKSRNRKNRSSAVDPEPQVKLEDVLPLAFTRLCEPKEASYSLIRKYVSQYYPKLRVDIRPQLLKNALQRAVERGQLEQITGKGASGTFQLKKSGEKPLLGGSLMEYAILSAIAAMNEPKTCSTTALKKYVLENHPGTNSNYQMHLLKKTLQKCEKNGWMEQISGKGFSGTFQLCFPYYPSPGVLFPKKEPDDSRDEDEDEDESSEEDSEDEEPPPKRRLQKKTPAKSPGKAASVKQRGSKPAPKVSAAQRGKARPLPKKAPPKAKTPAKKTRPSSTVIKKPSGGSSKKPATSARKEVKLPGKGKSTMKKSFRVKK
UniProt Q6ZNW5: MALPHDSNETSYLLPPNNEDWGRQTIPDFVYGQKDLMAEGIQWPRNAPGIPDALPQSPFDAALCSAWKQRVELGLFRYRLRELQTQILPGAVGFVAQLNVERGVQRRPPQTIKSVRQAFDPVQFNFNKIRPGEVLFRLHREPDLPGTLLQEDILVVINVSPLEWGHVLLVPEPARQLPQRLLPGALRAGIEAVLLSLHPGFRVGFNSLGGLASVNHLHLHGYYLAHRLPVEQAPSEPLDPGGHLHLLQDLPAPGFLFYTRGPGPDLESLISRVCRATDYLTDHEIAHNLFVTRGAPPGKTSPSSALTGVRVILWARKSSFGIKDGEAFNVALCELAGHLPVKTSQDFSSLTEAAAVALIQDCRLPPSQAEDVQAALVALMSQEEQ
UniProt Q5T0N5: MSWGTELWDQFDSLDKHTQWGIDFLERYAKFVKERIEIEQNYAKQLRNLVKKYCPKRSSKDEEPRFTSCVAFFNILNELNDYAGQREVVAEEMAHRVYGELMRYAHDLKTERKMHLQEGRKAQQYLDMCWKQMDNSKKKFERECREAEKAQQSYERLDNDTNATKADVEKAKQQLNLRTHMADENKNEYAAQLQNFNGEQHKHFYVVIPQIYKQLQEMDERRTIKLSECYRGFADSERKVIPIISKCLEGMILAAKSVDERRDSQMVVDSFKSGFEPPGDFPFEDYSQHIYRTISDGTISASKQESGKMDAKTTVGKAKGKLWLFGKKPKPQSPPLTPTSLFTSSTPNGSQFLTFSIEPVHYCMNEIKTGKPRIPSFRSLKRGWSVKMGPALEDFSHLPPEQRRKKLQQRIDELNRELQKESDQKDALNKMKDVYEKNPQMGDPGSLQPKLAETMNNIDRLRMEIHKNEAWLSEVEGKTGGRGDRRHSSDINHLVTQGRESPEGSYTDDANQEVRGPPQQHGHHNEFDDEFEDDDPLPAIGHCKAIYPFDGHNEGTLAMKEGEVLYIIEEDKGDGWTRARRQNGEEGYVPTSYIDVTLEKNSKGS
UniProt Q6PI48: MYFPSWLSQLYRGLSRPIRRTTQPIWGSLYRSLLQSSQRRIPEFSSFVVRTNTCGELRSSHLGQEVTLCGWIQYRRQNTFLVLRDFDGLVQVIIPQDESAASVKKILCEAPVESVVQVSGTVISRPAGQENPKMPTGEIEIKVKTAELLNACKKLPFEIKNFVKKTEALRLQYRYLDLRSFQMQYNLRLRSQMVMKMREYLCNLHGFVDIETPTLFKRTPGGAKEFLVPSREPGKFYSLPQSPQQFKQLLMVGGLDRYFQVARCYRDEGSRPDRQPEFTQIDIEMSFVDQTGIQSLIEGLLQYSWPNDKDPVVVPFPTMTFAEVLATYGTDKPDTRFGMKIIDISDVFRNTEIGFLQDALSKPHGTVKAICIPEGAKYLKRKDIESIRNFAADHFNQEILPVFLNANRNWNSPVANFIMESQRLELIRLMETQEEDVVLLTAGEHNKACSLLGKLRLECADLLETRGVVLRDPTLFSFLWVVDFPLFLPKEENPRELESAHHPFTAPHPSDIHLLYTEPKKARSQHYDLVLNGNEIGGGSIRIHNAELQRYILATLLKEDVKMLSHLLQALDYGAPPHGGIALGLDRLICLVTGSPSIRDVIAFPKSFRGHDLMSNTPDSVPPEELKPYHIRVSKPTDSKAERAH
UniProt Q69YH5: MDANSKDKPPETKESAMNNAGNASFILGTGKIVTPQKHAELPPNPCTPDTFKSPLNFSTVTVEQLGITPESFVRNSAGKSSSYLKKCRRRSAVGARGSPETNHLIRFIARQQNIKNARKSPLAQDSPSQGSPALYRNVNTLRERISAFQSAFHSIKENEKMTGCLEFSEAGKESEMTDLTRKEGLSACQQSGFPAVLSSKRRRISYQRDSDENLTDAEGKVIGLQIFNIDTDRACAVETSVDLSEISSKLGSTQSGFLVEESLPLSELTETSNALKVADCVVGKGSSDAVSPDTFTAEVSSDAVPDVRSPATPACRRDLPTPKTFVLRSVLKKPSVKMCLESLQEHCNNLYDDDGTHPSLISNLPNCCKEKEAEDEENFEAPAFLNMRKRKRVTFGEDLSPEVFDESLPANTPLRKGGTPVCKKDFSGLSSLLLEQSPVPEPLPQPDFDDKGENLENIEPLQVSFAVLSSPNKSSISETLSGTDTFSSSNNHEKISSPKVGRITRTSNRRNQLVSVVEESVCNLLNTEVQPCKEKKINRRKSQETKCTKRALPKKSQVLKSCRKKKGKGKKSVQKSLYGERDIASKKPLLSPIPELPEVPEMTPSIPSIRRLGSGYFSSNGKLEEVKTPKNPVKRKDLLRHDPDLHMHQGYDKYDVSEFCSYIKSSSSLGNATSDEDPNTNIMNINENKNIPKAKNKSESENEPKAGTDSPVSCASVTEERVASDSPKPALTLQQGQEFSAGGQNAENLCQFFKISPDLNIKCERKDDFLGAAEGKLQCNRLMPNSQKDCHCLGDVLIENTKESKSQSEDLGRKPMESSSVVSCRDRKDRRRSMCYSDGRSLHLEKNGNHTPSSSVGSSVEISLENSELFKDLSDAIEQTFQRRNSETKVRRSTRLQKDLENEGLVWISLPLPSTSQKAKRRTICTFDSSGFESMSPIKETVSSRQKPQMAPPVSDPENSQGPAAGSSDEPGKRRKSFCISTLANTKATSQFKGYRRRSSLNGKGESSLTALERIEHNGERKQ
UniProt Q5FBB7: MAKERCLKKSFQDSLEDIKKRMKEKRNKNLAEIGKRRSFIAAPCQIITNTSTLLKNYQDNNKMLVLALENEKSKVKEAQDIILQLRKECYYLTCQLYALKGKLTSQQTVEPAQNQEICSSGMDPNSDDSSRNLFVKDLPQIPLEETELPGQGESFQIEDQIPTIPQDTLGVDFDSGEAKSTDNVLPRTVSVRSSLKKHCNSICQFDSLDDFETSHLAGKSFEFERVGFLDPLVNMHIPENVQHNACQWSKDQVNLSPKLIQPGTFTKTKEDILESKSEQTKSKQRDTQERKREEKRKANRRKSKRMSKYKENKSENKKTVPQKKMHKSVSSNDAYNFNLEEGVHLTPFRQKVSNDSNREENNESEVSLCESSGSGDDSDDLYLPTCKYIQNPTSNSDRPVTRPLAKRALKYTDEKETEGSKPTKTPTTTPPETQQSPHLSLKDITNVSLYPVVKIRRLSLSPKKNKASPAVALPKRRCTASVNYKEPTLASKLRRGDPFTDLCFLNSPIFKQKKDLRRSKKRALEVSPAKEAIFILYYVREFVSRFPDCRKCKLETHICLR

Each target was assayed with COC(=O)/C=C/c1ccccc1 [methyl cinnamate] (assay: log2 ratio of iodoacetamide-alkyne labeling of the cysteine site, DMSO over compound (competition); higher = stronger covalent engagement of the cysteine by the compound, active = 1 or more). Details: 500 µM; treatment time 1 h; system: HEK293T cell lysate.
Outline: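 For each cysteine, the log2 competition ratio is mean control-channel reporter intensity over mean compound-channel reporter intensity. HEK293T lysate (2 mg/mL) was exposed to vehicle or electrophile (500 µM, 1 h, ambient temperature), labelled with iodoacetamide alkyne (1 h), clicked to sCIP-TMT reagents, digested overnight with trypsin at 37 °C, streptavidin-enriched and analysed by Orbitrap Eclipse LC-MS/MS with FAIMS and FragPipe. Cysteines quantified in only one of three replicates, each with duplicate channels, were excluded.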

Target	log2 ratio of iodoacetamide-alkyne labeling
SPECC1 C740 (UniProt Q5M775)	inactive: -0.0187
NIPBL C1795 (UniProt Q6KC79)	inactive: -0.291
SPECC1 C493 (UniProt Q5M775)	inactive: -0.0514
METTL2B C171 (UniProt Q6P1Q9)	inactive: 0.345
UniProt Q5JTC6_C1060	inactive: 0.146
UniProt Q5T440_C170	inactive: 0.333
UniProt Q6P2H3_C527	inactive: -0.0998
HP1BP3 C412 (UniProt Q5SSJ5)	inactive: -0.0499
UniProt Q6ZNW5_C64	inactive: 0.0814
SH3PXD2A C384 (UniProt Q5TCZ1)	inactive: 0.297
FNBP1L C69 (UniProt Q5T0N5)	inactive: -0.183
NIPBL C1876 (UniProt Q6KC79)	inactive: -0.0771
CDKAL1 C6 (UniProt Q5VV42)	inactive: 0.0226
YOD1 C97 (UniProt Q5VVQ6)	inactive: 0.188
DARS2 C371 (UniProt Q6PI48)	inactive: 0.237
C19orf54 C271 (UniProt Q5BKX5)	inactive: -0.371
CC2D1A C252 (UniProt Q6P1N0)	inactive: 0.0676
RSBN1L C818 (UniProt Q6PCB5)	inactive: 0.0999
RIF1 C2169 (UniProt Q5UIP0)	inactive: 0.141

Target	log2 ratio of iodoacetamide-alkyne labeling
CDCA2 C188 (UniProt Q69YH5)	inactive: 0.307
UniProt Q6PJG6_C228	inactive: 0.0899
HSDL2 C11 (UniProt Q6YN16)	inactive: 0.0719
SASS6 C525 (UniProt Q6UVJ0)	inactive: -0.0873
DOCK11 C409 (UniProt Q5JSL3)	inactive: -0.429
PDXDC1 C573 (UniProt Q6P996)	inactive: -0.137
PDE4DIP C617 (UniProt Q5VU43)	inactive: 0.318
UniProt Q5FBB7_C44	inactive: -0.0616
LIN9 C435 (UniProt Q5TKA1)	inactive: 0.115
INTS3 C498 (UniProt Q68E01)	inactive: 0.3
UniProt Q5VSL9_C418	inactive: 0.181
ZC3H14 C540 (UniProt Q6PJT7)	inactive: 0.313
BCORL1 C139 (UniProt Q5H9F3)	inactive: 0.179
PRPF8 C772 (UniProt Q6P2Q9)	inactive: 0.305
UniProt Q69YN4_C781	inactive: -0.0203
UniProt Q5VSL9_C769	inactive: 0.359
RICTOR C1012 (UniProt Q6R327)	inactive: 0.76
ANKRD54 C137 (UniProt Q6NXT1)	inactive: 0.18
NHSL1 C729 (UniProt Q5SYE7)	inactive: 0.404

A different layout for some results above:
Target | log2 ratio of iodoacetamide-alkyne labeling
FNBP1L C69 (UniProt Q5T0N5) | inactive: -0.183
NIPBL C1876 (UniProt Q6KC79) | inactive: -0.0771
CDKAL1 C6 (UniProt Q5VV42) | inactive: 0.0226
YOD1 C97 (UniProt Q5VVQ6) | inactive: 0.188
DARS2 C371 (UniProt Q6PI48) | inactive: 0.237
C19orf54 C271 (UniProt Q5BKX5) | inactive: -0.371
CC2D1A C252 (UniProt Q6P1N0) | inactive: 0.0676
RSBN1L C818 (UniProt Q6PCB5) | inactive: 0.0999
RIF1 C2169 (UniProt Q5UIP0) | inactive: 0.141
